Data as given in PubChem BioAssay AID686938 (Drosophila RNAi Screening Center, 2013).
In all, the deposit lists about 23,000 reagents; this is a random part of those with a known target gene and a result. Over the whole deposit, 75 (0.33%) were called active. 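Raw plate signals without normalisation; calls rest on plate z-scores that were not deposited; ratio present for only 364 wells.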 The numbers tell different reagents against one gene apart. A plus sign joins genes that one reagent is predicted to hit. Not stated in the record: the dose of the treatment.

Aim: 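Fly genes required for calcium entry once internal stores are emptied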 (primary screen)
System: Drosophila S2R+ cells
Reagents: long dsRNA against Drosophila genes, about 0.25 µg dsRNA per well, roughly 10,000 cells
Time to read-out: 5 days of knock-down before the calcium assay
Challenge: thapsigargin (SERCA pump blocker) to empty calcium stores; entry signal taken 4 min after adding it
Detection: 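Duplicate raw fluo-4 intensities per well from a plate reader, at rest and four minutes after thapsigargin emptied calcium stores; entry-to-rest ratio filled for only some wells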
Reading the numbers: calcium entry signal: higher = stronger calcium signal after store depletion; resting calcium signal: higher = higher resting calcium signal
Units: calcium entry signal in fluorescence units; resting calcium signal in fluorescence units
Rule for the call: 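Called when the plate z-score of the entry-to-rest ratio, mean of duplicates, falls below −3; wells with low overall dye signal (Fmax z below −2) or more than five off-targets excluded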
Calls: active = strongly reduced calcium entry; inactive = no strong reduction

RYa-R showed calcium entry signal, replicate 1 = 3.30e7; calcium entry signal, replicate 2 = 3.28e7; resting calcium signal, replicate 1 = 1.54e7; resting calcium signal, replicate 2 = 1.48e7; inactive.
Against CG32808 the deposit lists calcium entry signal, replicate 1 = 2.60e7; calcium entry signal, replicate 2 = 4.24e7; resting calcium signal, replicate 1 = 1.35e7; resting calcium signal, replicate 2 = 1.60e7; inactive.
CG8170 scored calcium entry signal, replicate 1 = 4.15e7; calcium entry signal, replicate 2 = 4.03e7; resting calcium signal, replicate 1 = 1.90e7; resting calcium signal, replicate 2 = 1.79e7; inactive.
For Tengl1, the values are calcium entry signal, replicate 1 = 3.06e7; calcium entry signal, replicate 2 = 3.55e7; resting calcium signal, replicate 1 = 1.51e7; resting calcium signal, replicate 2 = 1.76e7; inactive.
Knock-down of CG8677 + CG31626 came out at: calcium entry signal, replicate 1 = 1.75e7; calcium entry signal, replicate 2 = 3.89e7; resting calcium signal, replicate 1 = 8.76e6; resting calcium signal, replicate 2 = 1.86e7; inactive.
Knock-down of Oatp30B gave: calcium entry signal, replicate 1 = 5.44e7; resting calcium signal, replicate 1 = 2.45e7; inactive.
5PtaseI #1 scored calcium entry signal, replicate 1 = 4.01e7; calcium entry signal, replicate 2 = 4.18e7; resting calcium signal, replicate 1 = 1.80e7; resting calcium signal, replicate 2 = 1.68e7; inactive.
5PtaseI #2 scored calcium entry signal, replicate 1 = 3.92e7; calcium entry signal, replicate 2 = 4.83e7; resting calcium signal, replicate 1 = 1.80e7; resting calcium signal, replicate 2 = 2.80e7; inactive.
Depletion of CG17883 came out at: calcium entry signal, replicate 1 = 3.36e7; calcium entry signal, replicate 2 = 4.48e7; resting calcium signal, replicate 1 = 1.77e7; resting calcium signal, replicate 2 = 2.01e7; inactive.
Cog7 gave calcium entry signal, replicate 1 = 3.29e7; calcium entry signal, replicate 2 = 5.58e7; resting calcium signal, replicate 1 = 1.73e7; resting calcium signal, replicate 2 = 2.21e7; inactive.
For Lmpt #1, the entry reads calcium entry signal, replicate 1 = 4.50e7; calcium entry signal, replicate 2 = 3.90e7; resting calcium signal, replicate 1 = 1.98e7; resting calcium signal, replicate 2 = 1.91e7; inactive.
With knock-down of Lmpt #2 the results were calcium entry signal, replicate 1 = 4.48e7; calcium entry signal, replicate 2 = 6.34e7; resting calcium signal, replicate 1 = 2.08e7; resting calcium signal, replicate 2 = 2.42e7; inactive.
Depletion of Lmpt #3 resulted in: calcium entry signal, replicate 1 = 2.28e7; calcium entry signal, replicate 2 = 3.26e7; resting calcium signal, replicate 1 = 1.12e7; resting calcium signal, replicate 2 = 2.22e7; inactive.
Silencing of Lmpt #4 came out at: calcium entry signal, replicate 1 = 4.56e7; calcium entry signal, replicate 2 = 6.93e7; resting calcium signal, replicate 1 = 2.24e7; resting calcium signal, replicate 2 = 2.67e7; inactive.
Silencing of Lmpt #5 gave: calcium entry signal, replicate 1 = 3.84e7; calcium entry signal, replicate 2 = 6.59e7; resting calcium signal, replicate 1 = 1.83e7; resting calcium signal, replicate 2 = 2.56e7; inactive.
Silencing of Lmpt #6 resulted in: calcium entry signal, replicate 1 = 3.27e7; calcium entry signal, replicate 2 = 3.46e7; resting calcium signal, replicate 1 = 1.71e7; resting calcium signal, replicate 2 = 1.63e7; inactive.
For Lmpt #7, the values are calcium entry signal, replicate 1 = 3.00e7; calcium entry signal, replicate 2 = 4.28e7; resting calcium signal, replicate 1 = 1.50e7; resting calcium signal, replicate 2 = 1.73e7; inactive.
Knock-down of vis + achi came out at: calcium entry signal, replicate 1 = 3.45e7; calcium entry signal, replicate 2 = 4.21e7; resting calcium signal, replicate 1 = 1.56e7; resting calcium signal, replicate 2 = 2.04e7; inactive.
Against Tengl3 the deposit lists calcium entry signal, replicate 1 = 2.99e7; calcium entry signal, replicate 2 = 4.49e7; resting calcium signal, replicate 1 = 1.35e7; resting calcium signal, replicate 2 = 2.19e7; inactive.
For azot, the entry reads calcium entry signal, replicate 1 = 3.04e7; calcium entry signal, replicate 2 = 2.11e7; resting calcium signal, replicate 1 = 1.51e7; resting calcium signal, replicate 2 = 1.15e7; inactive.
Depletion of emp #1 resulted in: calcium entry signal, replicate 1 = 2.38e7; calcium entry signal, replicate 2 = 3.38e7; resting calcium signal, replicate 1 = 1.23e7; resting calcium signal, replicate 2 = 1.41e7; inactive.
With knock-down of emp #2, the screen gave calcium entry signal, replicate 1 = 3.16e7; resting calcium signal, replicate 1 = 1.63e7; inactive.
